# From publication PMC12040169 (PLOS Biology, 2025)
# The list shows a part of the results.
# Test system: T1, CTL2-GFP (C. trachomatis L2/434/Bu, GFP-expressing)
# T1 construct: L2/434/Bu, GFP-expressing
# Set-up: species or system HeLa; Intracellular C. trachomatis growth in HeLa cells, bulk GFP fluorescence relative to DMSO
# Settings: bulk GFP, single well; 28.5 h, 10 µM; inhibitor
row,Compound,% of control remaining [%]
1,CCCCOc1ccc(OC(=O)C2CCN(CCCC)CC2)cc1 [CBK122680],128.495
2,CCc1nnc(CN(C)Cc2c(C)nn(C)c2Cl)o1 [CBK304132],132.852
3,NCc1ccc2cccc(O)c2n1 [CBK001376T],18.0222
4,Cc1c(NC(=O)CSc2ccc(Cl)cc2)cccc1-c1nc2ncccc2o1 [CBK268829],94.0721
5,O=C(Cc1ccccc1)N/N=C/c1nnco1 [CBK021274],131.036
6,Cc1csc2ncc(C(=O)Nc3ccc(Cl)c(Cl)c3)c(=O)n12 [CBK287459],126.857
7,CCOC(=O)c1cnn(C2CCCN(Cc3cccn3C)C2)c1 (stereo not shown) [CBK305114],101.125
8,Cc1cc(C(=O)NCCn2ccnc2C)c2cccc(Cl)c2n1 [CBK282460],133.73
9,CCCN1CC(NS(=O)(=O)c2ccc(OC)c3c2CCCC3)CC1=O (stereo not shown) [CBK307098],125.906
10,O=C(N/N=C/c1ccc(-c2ccc([N+](=O)[O-])cc2)o1)c1cccnc1 [CBK262287],100
11,CCCN1CCCC(NS(=O)(=O)c2cc(-n3cccn3)ccc2OC)C1 (stereo not shown) [CBK307426],103.564
12,Nc1ccc([C@@H]2CN(Cc3ccccc3)C[C@]23CCCC(=O)N3)cc1 [CBK284649],141.912
13,CC(C)(C)NC(NC(=O)Cc1ccccc1)C(Cl)(Cl)Cl (stereo not shown) [CBK261090],101.532
14,CC(C)Nc1cc(Sc2ccc(F)cc2)ncn1 [CBK089498],145.641
15,CN(C(=O)NC1CCCc2c1cnn2CCO)c1ccccc1F (stereo not shown) [CBK304024],102.074
16,CN(C)C(=O)C1(Cc2ccc(-c3cccs3)cc2)CCN(C(=O)c2ccccc2)CC1 [CBK286270],105.239
17,Cc1ccc(-c2csc3ncn4nnnc4c23)cc1 [CBK019710],105.536
18,COC(=O)c1c(NC(=O)C2CC=CCC2C(=O)O)sc2c1CCC(c1ccccc1)C2 (stereo not shown) [CBK263683],120.096
19,CCc1nc2ccc(C(=O)Nc3ccc(Cl)c(Cl)c3)cn2c1N(C)Cc1ccc(OC)cc1 [CBK145585],91.3527
20,O=C(O)Cc1nnnn1-c1ccccc1 [CBK262984],84.2499

row,Compound,% of control remaining [%]
1,CCN(CC)C(=O)CN1CCN(c2nccnc2OC)CC1 [CBK084221],71.3069
2,Cc1ccsc1CNC(=O)OCC1CCN(C)CC1 [CBK200149],96.1407
3,O=C(COc1ccc(-c2cnc3ccccc3n2)cc1)c1cccc([N+](=O)[O-])c1 [CBK266367],167.393
4,O=C(CN1CCN(C2CCCC2)C(=O)C1)N1CCCc2ccccc21 [CBK282132],142.877
5,CCc1cc2c(=O)c(-c3nc(C)cs3)c(CCCC(=O)O)oc2cc1O [CBK264834],131.526
6,OC1CCCCC1C1(NC(=S)Nc2ccccc2)CCCCC1 (stereo not shown) [CBK026324],107.5
7,CC(=O)N(Cc1ccccc1)C1CCCc2c1[nH]c1ccc(C)cc21 (stereo not shown) [CBK261810],124.813
8,COc1ccc(Nc2cc(-c3cccc(NC(C)=O)c3)ncn2)cn1 [CBK037125],115.869
9,O=C(NCc1ccco1)c1cc(-c2ccc3[nH]ccc3c2)cnc1NCCOc1ccccc1 [CBK106388],98.3517
10,CCCc1n[nH]c(=S)n1CC(=O)Nc1cccc(-n2ncc(C(=O)OCC)c2C)c1 [CBK297746],98.8269
11,O=C(Cn1cnc2ccc(F)cc2c1=O)N1CCOC2CCCC21 (stereo not shown) [CBK304932],154.517
12,CC(NC(=O)N1CCc2ccccc2C1)c1ccccc1 (stereo not shown) [CBK155310],108.2
13,CCOC(=O)c1c(NC(=O)CN2CCN(c3ccc(F)cc3)CC2)sc2c1CCCC2 [CBK265536],114.001
14,O=C(NCc1ccc2c(c1)OCO2)c1ccc(S(=O)(=O)N2CCCC2)cc1 [CBK263590],108.789
15,Fc1cccc(NCc2ccccc2)n1 [CBK000149],92.3388
16,O=C(COc1ccc(F)cc1)Nc1ccc2[nH]ccc2c1 [CBK159689],125.885
17,CC(C)(C)OC(=O)N1CCC(COc2ncc(-c3ccc(C(=O)N4CCC[C@@H]4CO)nc3)cn2)CC1 [CBK170022],104.07
18,CC(C)CC(=O)N1CCC(Cc2ccccc2-c2cccs2)(C(=O)NC(C)C)CC1 [CBK285898],115.679
19,COC(=O)C1C(=O)Oc2ccc3ccccc3c2C1C(C)C(=O)c1ccc(Br)cc1 (stereo not shown) [CBK266126],129.635
20,CN1CCC(Oc2ncccc2OCc2ccccc2)CC1 [CBK036311],101.672

# Among those listed so far, two contain an aryl thioether with sulfur outside any ring.
row,Compound,% of control remaining [%]
4,Cc1c(NC(=O)CSc2ccc(Cl)cc2)cccc1-c1nc2ncccc2o1 [CBK268829],94.0721
14,CC(C)Nc1cc(Sc2ccc(F)cc2)ncn1 [CBK089498],145.641
